Experimental data as given in doi:10.1101/465930.
Results are given in words; binding and its absence hold for the method and conditions named. For some assays here: Binding seen in cells or lysates may run through a third protein. Some entries that bind do so weakly or less than the wild type. For some assays here: Where a sequence is shown, tags or fusion partners need not be part of it.

Chains of the proteins cited; added tags and fusions are not shown. Residues count along the entry.
UniProt P16092, residues 22-822: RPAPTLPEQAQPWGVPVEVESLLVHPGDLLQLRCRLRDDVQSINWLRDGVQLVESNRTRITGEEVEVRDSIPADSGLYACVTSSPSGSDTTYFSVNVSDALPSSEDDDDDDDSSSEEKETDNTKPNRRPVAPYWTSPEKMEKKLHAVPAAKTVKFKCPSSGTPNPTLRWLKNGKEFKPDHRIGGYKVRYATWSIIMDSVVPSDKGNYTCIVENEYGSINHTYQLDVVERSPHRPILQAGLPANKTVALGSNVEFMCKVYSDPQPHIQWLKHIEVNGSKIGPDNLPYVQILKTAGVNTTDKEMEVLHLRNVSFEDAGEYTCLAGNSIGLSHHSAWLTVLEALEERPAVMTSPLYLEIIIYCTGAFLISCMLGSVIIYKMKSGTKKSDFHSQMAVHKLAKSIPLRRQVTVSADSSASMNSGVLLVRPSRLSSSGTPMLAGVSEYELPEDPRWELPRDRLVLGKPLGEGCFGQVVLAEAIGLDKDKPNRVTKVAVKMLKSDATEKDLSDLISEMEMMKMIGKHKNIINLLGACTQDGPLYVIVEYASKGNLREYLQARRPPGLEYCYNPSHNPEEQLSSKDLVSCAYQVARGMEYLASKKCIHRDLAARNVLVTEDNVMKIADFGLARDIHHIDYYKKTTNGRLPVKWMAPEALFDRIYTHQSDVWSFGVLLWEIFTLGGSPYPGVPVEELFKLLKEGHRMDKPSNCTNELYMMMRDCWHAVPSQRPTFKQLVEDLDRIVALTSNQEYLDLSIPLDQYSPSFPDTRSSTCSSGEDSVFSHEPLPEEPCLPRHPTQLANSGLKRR

Experiments:
[1] = target: T1, Ncad-Fc (UniProt P19022); assay: cell adhesion to a coated surface
T1 sequence: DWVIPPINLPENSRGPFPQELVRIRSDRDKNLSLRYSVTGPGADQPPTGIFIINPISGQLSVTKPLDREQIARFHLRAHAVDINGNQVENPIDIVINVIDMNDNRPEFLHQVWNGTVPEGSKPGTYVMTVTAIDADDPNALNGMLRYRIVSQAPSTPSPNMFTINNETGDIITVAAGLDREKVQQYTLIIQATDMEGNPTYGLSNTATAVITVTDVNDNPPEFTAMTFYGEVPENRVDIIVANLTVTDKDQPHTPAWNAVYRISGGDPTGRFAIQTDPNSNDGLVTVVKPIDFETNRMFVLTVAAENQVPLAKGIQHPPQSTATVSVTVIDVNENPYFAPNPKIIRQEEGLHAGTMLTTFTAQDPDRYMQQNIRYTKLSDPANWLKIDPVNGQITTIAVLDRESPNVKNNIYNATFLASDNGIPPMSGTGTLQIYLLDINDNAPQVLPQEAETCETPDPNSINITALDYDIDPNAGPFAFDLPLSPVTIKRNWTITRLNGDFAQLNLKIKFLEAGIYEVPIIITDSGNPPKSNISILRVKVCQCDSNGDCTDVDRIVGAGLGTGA

[2] = target: GFP-FGFR1 (mouse) (UniProt P16092); assay: co-IP

## DsRed-Ncad (from UniProt P15116 160-906)
[1]
  binding: binds
[2]
  binding: binds
